Measurements taken from paper PMC6349933.
No constants are given. Whether binding was seen depends on the method and setting. For some of these results: Binding can be weak; no strength is given. For some of these results: Binding seen in cells or lysates may run through a third protein.

By UniProt entry, the sequences of proteins in these tests, tags left out. Where a name states a change or a piece, a line headed by the entry shows the natural chain unless it says otherwise.
UniProt O82481: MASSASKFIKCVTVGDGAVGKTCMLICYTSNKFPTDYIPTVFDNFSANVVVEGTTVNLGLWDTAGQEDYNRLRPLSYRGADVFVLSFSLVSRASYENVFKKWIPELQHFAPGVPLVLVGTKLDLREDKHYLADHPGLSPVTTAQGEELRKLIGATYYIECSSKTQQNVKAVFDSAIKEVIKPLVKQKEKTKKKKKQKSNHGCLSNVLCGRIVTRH
UniProt Q9C6F8: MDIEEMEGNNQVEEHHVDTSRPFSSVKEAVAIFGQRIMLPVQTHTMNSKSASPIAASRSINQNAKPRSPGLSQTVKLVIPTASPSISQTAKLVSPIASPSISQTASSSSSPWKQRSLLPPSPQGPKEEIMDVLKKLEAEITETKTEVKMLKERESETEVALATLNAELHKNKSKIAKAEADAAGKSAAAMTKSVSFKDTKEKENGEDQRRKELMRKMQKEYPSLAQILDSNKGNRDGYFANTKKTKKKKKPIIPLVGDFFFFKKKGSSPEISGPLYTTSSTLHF

Experiments:
[1] = molecular target: 6× His-fused BDR1 (Arabidopsis thaliana) (UniProt Q9FG09); assay: pull-down; 1 μg of recombinant proteins mixed, room temperature 10 min; 6× His-BDR1 held on Ni Sepharose 6 Fast Flow resin; washed with Tris buffer (50 mM Tris-HCl, pH 7.5, 150 mM NaCl); western with anti-His and anti-GST; both purified
[2] = molecular target: cEYFP-ROP11 (Arabidopsis) (UniProt O82481); assay: split reporter; BiFC with halves of EYFP (nEYFP, cEYFP); transient co-expression in N. benthamiana (tobacco) leaf epidermal cells, estradiol-induced
[3] = molecular target: cEYFP-ROP11G17V (Arabidopsis) (UniProt O82481); assay: as above
[4] = molecular target: cEYFP-ROP11T22N (Arabidopsis) (UniProt O82481); assay: as above

Substance	binding [1]	binding [2]	binding [3]	binding [4]
GST-WAL (from UniProt Q9C6F8)	binds			
BDR1-nEYFP (from UniProt Q9FG09)		binds	binds	no binding
